# Data as given in PubChem BioAssay AID743454 (Peter MacCallum Cancer Centre, 2014).
# Aim: 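Genes whose loss kills vorinostat-resistant colon cancer cells under vorinostat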 (primary screen)
# System: human HCT116-VR colon cancer cells, selected for vorinostat resistance
# Knock-down reagent: siRNA pool against human genes, 40 nM siRNA pool
# Duration: vorinostat for 24 h, read-out about 72 h after transfection
# Treatment: vorinostat at 2.5 µM final
# Detection: 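Cell viability by CellTiter-Fluor and caspase 3/7 activity by luminescence, each scaled to mock wells per plate, duplicates averaged, then robust z-scored over all plates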
# Direction: viability robust z-score: higher = more viable cells than screen typical; caspase robust z-score: higher = more caspase 3/7 activity than screen typical
# Active means: 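a knock-down is a hit when classed RV1 or RV2 for lowered viability, or CA1 or CA2 for caspase activation; those lethal without drug were dropped; hits were retested singly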
# In all, the deposit lists about 18,000 reagents; shown is an unselected part. 450 of them (2.5%) were called active. 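Single biological run; no consistent viability z cut-off exists, so the class columns, not z-scores, define the calls.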
Target gene,viability hit class,caspase hit class,viability robust z-score,caspase robust z-score,activity call
SNRNP25 (GeneID 79622),no change,no change,-1.47,-0.38,inactive
TNNT3 (GeneID 7140),no change,no change,-1.21,0.24,inactive
SAMD13 (GeneID 148418),no change,no change,-0.32,-0.4,inactive
ITPRIPL2 (GeneID 162073),no change,no change,0.08,-0.24,inactive
FAAH (GeneID 2166),no change,no change,0.8,-0.61,inactive
IAPP (GeneID 3375),no change,no change,0.95,-0.7,inactive
OR5H1 (GeneID 26341),no change,no change,0.92,-0.56,inactive
CCDC172 (GeneID 374355),no change,no change,0.55,-1.15,inactive
SMYD3 (GeneID 64754),no change,no change,0.6,1.52,inactive
LENG8 (GeneID 114823),no change,no change,0.55,0.9,inactive
PLSCR5 (GeneID 389158),no change,no change,0.88,-0.31,inactive
SEM1 (GeneID 7979),no change,no change,-1.27,2.05,inactive
ZNF326 (GeneID 284695),no change,no change,1.2,-0.74,inactive
ZNF655 (GeneID 79027),no change,no change,-1.29,4.17,inactive
POU5F1 (GeneID 5460),no change,no change,1.01,1.07,inactive
ZNF785 (GeneID 146540),no change,no change,0.26,0.59,inactive
ACSM5 (GeneID 54988),no change,no change,1.05,-0.34,inactive
TAF1L (GeneID 138474),no change,no change,-0.4,-0.67,inactive
USP19 (GeneID 10869),no change,no change,0.74,-1.04,inactive
RBKS (GeneID 64080),no change,no change,0.82,0.22,inactive
MYF6 (GeneID 4618),no change,no change,-0.52,-0.23,inactive
ZNF14 (GeneID 7561),no change,no change,-1.21,-0.44,inactive
HCN3 (GeneID 57657),no change,no change,0.05,0.23,inactive
GBA1 (GeneID 2629),no change,no change,-0.38,0.42,inactive
ZNF234 (GeneID 10780),no change,no change,0.59,-0.24,inactive
ZNF446 (GeneID 55663),no change,no change,0.29,-0.46,inactive
CCAR1 (GeneID 55749),no change,no change,0.01,-0.98,inactive
CTDSPL2 (GeneID 51496),no change,no change,-0.33,2.42,inactive
USP44 (GeneID 84101),no change,no change,1.48,0.38,inactive
SPRR2F (GeneID 6705),no change,no change,-0.36,1.54,inactive
ZBTB46 (GeneID 140685),no change,no change,0.36,3.46,inactive
QRFPR (GeneID 84109),no change,no change,-0.26,-1.21,inactive
DHX15 (GeneID 1665),no change,no change,-0.74,0.83,inactive
KRT23 (GeneID 25984),no change,no change,0.29,2.03,inactive
PARP8 (GeneID 79668),no change,no change,-0.3,1.35,inactive
KIFC2 (GeneID 90990),no change,no change,0.56,2.05,inactive
MATN3 (GeneID 4148),no change,no change,-0.1,-0.58,inactive
ZNF584 (GeneID 201514),no change,no change,-0.64,-0.38,inactive

Targets above whose target name begins with Z or z (8):
Target gene,viability hit class,caspase hit class,viability robust z-score,caspase robust z-score,activity call
ZNF326 (GeneID 284695),no change,no change,1.2,-0.74,inactive
ZNF655 (GeneID 79027),no change,no change,-1.29,4.17,inactive
ZNF785 (GeneID 146540),no change,no change,0.26,0.59,inactive
ZNF14 (GeneID 7561),no change,no change,-1.21,-0.44,inactive
ZNF234 (GeneID 10780),no change,no change,0.59,-0.24,inactive
ZNF446 (GeneID 55663),no change,no change,0.29,-0.46,inactive
ZBTB46 (GeneID 140685),no change,no change,0.36,3.46,inactive
ZNF584 (GeneID 201514),no change,no change,-0.64,-0.38,inactive

Additional records follow.
Target gene,viability hit class,caspase hit class,viability robust z-score,caspase robust z-score,activity call
TLN2 (GeneID 83660),no change,no change,0.4,-0.25,inactive
PRRG2 (GeneID 5639),no change,no change,0.17,0,inactive
PAFAH1B1 (GeneID 5048),no change,no change,-0.04,1.64,inactive
AKIRIN1 (GeneID 79647),no change,no change,0.4,0.56,inactive
MAPK8IP2 (GeneID 23542),no change,no change,-0.43,-0.49,inactive
PSD (GeneID 5662),no change,no change,-1.31,2.08,inactive
SLC45A1 (GeneID 50651),no change,no change,1.07,0.3,inactive
KRTAP21-1 (GeneID 337977),no change,no change,-0.58,0.36,inactive
EVA1B (GeneID 55194),no change,no change,-0.24,-0.1,inactive
AP3M2 (GeneID 10947),no change,no change,-0.26,-1.07,inactive
CYP8B1 (GeneID 1582),no change,no change,0.32,-0.06,inactive
SLC67A2 (GeneID 84804),no change,no change,0.04,-0.11,inactive
RBM5 (GeneID 10181),no change,no change,-0.11,-0.02,inactive
TBC1D7 (GeneID 51256),no change,no change,1.05,-0.69,inactive
CLEC11A (GeneID 6320),no change,no change,0.1,-0.7,inactive
KLHL15 (GeneID 80311),no change,no change,0.87,2.39,inactive
PLA2R1 (GeneID 22925),no change,no change,-1.51,0.46,inactive
RAB11FIP4 (GeneID 84440),no change,no change,0.42,-0.09,inactive
DHX16 (GeneID 8449),no change,no change,-0.25,0.91,inactive
